Paper PMC3629710

Amino acid sequences for entries named in this document (tags omitted). A change or cut given only in a name is not applied to a line headed by its entry. Residues count along the entry.
UniProt Q9NYB9, residues 451-510: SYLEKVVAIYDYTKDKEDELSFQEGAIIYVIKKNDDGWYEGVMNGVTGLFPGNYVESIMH
UniProt P42684, residues 107-167: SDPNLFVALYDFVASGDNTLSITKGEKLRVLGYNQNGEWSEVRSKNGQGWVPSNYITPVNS
UniProt Q06187, residues 214-274: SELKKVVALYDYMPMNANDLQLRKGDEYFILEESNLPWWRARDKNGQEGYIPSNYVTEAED
UniProt Q15700, residues 536-606: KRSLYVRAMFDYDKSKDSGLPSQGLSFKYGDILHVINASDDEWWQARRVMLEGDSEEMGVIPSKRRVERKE
UniProt P06239: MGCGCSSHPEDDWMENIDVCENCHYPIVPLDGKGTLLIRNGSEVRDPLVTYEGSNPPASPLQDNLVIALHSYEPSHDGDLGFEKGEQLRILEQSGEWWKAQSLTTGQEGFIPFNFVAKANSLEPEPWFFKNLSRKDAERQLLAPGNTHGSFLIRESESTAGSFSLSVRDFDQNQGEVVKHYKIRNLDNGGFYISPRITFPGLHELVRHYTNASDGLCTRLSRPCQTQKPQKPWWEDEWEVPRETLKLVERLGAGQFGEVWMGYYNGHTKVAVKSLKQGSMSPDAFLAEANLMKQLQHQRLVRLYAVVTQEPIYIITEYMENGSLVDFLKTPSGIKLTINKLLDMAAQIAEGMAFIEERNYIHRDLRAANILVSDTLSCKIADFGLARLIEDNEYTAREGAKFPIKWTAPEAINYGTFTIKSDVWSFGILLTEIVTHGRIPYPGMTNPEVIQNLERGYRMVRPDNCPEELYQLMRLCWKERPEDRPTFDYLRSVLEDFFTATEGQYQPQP
UniProt Q92968, residues 272-336: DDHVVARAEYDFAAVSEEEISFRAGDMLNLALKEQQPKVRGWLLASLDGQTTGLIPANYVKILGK
UniProt Q99961, residues 306-365: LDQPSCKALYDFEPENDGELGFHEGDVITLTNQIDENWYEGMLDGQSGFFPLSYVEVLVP
UniProt Q9Y5X1, residues 1-62: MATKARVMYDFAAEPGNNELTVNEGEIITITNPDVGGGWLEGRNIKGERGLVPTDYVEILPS
UniProt Q92783, residues 210-269: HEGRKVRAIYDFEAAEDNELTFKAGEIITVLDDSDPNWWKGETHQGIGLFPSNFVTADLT
UniProt P42680, residues 179-239: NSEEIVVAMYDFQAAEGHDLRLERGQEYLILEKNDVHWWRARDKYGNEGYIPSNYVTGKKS
UniProt P15498: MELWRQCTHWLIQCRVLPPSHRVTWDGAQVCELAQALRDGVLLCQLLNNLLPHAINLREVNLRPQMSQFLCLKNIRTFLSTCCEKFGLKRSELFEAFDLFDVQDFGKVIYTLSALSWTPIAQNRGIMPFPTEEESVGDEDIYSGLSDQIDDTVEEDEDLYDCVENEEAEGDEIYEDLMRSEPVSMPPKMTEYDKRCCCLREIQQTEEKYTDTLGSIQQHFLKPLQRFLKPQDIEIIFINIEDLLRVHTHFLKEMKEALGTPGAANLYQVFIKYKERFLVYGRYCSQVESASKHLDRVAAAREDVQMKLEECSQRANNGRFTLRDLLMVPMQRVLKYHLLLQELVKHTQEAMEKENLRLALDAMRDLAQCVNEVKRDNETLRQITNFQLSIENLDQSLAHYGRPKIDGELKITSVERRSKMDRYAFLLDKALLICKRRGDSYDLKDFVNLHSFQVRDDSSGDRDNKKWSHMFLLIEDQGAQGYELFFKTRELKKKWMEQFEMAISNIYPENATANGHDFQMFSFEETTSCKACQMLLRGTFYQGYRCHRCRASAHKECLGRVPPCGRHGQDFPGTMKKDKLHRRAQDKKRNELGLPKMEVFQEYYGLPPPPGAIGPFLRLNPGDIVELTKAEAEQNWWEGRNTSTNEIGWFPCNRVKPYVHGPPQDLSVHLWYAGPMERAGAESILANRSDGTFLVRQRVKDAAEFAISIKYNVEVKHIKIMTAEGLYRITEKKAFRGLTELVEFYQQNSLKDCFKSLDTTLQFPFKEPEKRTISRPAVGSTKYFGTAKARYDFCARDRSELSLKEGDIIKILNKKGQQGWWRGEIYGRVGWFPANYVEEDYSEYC
UniProt P52735: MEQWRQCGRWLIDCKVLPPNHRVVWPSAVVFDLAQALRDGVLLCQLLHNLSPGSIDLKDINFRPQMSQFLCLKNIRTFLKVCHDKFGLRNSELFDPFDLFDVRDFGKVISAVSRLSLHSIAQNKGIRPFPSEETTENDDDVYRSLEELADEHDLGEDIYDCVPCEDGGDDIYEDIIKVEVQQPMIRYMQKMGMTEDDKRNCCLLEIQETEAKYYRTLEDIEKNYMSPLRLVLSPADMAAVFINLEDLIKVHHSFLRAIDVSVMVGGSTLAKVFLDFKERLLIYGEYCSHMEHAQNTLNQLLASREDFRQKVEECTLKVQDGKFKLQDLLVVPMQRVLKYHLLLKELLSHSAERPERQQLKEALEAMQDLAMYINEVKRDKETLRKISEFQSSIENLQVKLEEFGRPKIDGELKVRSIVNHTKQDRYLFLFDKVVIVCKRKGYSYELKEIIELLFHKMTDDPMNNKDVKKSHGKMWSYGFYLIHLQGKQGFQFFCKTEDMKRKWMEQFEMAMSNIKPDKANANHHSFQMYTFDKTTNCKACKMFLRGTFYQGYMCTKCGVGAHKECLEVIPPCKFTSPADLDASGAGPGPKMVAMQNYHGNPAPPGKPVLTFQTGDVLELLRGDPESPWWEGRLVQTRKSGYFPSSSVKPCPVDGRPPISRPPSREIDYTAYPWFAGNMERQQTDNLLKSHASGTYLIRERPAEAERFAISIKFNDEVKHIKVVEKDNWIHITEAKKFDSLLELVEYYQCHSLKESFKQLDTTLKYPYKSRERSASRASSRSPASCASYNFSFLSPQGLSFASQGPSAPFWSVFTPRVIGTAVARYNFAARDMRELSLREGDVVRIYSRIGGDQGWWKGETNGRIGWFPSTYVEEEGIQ
UniProt Q9UKW4: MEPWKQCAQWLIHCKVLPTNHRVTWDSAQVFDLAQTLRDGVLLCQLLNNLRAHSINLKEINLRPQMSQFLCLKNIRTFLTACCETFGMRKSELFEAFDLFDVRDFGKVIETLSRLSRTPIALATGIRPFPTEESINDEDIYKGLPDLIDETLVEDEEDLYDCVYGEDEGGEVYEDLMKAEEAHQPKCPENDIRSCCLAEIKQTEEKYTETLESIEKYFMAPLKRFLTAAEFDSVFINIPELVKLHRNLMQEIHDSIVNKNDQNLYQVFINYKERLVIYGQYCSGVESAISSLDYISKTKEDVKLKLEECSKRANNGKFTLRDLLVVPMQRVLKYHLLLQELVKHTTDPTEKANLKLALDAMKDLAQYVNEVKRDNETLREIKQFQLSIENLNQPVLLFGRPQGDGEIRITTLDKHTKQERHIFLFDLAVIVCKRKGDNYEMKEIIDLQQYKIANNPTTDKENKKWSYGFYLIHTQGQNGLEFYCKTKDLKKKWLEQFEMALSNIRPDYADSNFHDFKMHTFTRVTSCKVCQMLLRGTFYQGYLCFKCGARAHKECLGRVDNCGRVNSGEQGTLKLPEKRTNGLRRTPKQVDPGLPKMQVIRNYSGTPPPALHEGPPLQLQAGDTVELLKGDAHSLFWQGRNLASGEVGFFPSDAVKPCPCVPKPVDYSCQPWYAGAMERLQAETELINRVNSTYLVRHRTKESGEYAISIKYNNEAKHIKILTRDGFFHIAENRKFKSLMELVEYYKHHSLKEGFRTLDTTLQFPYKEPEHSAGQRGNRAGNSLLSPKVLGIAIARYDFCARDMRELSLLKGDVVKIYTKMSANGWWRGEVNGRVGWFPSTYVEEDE
UniProt O60504: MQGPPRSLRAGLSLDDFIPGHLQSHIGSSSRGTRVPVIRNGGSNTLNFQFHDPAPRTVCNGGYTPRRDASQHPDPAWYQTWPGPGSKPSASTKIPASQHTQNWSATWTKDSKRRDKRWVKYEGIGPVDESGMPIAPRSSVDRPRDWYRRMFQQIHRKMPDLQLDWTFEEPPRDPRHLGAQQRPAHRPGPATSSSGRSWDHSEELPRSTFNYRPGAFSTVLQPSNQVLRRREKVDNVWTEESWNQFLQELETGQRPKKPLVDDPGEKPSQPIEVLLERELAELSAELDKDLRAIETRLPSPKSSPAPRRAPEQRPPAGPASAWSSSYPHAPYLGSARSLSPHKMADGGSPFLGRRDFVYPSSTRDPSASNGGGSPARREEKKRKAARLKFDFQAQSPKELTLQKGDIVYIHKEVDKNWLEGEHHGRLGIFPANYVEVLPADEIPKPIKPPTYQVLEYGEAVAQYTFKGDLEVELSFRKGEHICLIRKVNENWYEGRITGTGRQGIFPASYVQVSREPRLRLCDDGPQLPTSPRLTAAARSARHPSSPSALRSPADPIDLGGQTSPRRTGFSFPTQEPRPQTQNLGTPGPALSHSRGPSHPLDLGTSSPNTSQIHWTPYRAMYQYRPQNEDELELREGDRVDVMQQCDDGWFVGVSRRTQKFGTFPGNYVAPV
UniProt Q14247, residues 492-550: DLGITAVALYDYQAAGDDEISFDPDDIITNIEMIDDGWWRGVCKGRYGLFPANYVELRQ
UniProt Q13905: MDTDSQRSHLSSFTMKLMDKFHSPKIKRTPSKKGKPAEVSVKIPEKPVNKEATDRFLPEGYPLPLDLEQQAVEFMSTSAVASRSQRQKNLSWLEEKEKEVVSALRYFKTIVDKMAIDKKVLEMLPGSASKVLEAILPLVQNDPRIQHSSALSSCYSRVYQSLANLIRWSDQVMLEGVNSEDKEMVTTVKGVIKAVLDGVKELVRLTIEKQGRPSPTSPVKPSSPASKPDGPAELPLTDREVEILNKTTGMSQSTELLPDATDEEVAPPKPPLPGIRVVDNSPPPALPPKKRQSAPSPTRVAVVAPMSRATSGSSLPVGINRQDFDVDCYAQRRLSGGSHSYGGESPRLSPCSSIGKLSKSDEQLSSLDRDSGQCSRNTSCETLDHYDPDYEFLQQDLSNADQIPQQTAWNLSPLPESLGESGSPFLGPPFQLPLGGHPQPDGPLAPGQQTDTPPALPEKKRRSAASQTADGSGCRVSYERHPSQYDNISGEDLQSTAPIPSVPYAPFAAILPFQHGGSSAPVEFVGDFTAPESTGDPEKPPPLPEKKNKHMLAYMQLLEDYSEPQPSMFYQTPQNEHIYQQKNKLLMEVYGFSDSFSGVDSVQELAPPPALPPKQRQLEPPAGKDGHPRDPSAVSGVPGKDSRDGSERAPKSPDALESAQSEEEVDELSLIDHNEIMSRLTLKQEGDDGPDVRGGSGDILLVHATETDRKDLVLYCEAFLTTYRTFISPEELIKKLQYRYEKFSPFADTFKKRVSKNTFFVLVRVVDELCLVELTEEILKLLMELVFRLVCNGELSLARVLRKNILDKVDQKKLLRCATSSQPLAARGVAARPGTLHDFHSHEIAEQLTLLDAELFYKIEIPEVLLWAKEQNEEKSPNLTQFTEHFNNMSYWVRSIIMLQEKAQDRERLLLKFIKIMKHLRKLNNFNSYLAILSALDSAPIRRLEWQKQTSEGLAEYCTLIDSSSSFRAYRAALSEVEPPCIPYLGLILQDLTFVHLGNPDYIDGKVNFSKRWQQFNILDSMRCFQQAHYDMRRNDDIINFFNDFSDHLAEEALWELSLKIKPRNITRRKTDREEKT
UniProt P46109: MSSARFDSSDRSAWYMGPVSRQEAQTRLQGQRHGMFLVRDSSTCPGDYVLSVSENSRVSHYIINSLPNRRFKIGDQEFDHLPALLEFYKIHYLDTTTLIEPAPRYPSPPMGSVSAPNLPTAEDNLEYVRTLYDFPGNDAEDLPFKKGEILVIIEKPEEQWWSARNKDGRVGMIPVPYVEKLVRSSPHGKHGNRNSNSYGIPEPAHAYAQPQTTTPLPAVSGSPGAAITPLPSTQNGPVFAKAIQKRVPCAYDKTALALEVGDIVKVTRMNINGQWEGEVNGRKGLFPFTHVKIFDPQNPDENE
UniProt Q8IZP0: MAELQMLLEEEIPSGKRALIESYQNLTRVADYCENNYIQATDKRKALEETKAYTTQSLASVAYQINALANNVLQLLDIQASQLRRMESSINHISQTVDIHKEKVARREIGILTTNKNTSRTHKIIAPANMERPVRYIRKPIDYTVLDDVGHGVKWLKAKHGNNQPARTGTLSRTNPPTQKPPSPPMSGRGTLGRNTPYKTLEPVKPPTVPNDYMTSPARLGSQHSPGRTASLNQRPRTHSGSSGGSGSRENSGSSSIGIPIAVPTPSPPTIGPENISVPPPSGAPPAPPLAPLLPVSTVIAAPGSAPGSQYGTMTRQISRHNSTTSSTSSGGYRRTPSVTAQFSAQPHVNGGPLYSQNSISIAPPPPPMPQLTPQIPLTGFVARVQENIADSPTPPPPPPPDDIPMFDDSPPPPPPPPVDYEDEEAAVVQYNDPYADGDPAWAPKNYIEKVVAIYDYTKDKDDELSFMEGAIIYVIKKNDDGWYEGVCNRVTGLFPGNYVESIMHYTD

Tests used:
[1] = molecular target: Abi2-SH3 domain (AbI2B) (SH3 domain array) (UniProt Q9NYB9); assay: peptide or protein array; Panomics SH3 Domain Arrays I and II: immobilised SH3 domains fused to GST, hybridised with purified N-terminally His-tagged SH3-b domain, detected with peroxidase-conjugated anti-His antibody and ECL; both purified
[2] = molecular target: Abl SH3 domain (SH3 domain array) (UniProt P00519); assay: as above
[3] = molecular target: Abl2 (ARG) SH3 domain (SH3 domain arrays) (UniProt P42684); assay: as above
[4] = molecular target: BTK SH3 domain (SH3 domain array) (UniProt Q06187); assay: as above
[5] = molecular target: Dlg2 SH3 domain (SH3 domain array) (UniProt Q15700); assay: as above
[6] = molecular target: T1, Itk SH3 domain (SH3 domain array) (UniProt Q08881); assay: as above
T1 sequence: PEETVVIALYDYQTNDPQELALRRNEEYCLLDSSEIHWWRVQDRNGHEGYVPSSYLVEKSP

[7] = molecular target: LCK SH3 domain (SH3 domain array) (UniProt P06239); assay: as above
[8] = molecular target: T2, M3KA SH3 domain (SH3 domain array) (UniProt Q02779); assay: as above
T2 sequence: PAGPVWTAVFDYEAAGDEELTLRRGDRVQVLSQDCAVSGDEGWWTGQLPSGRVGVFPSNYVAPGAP

[9] = molecular target: NOF2-D1 SH3 domain (SH3 domain arrays) (UniProt P19878); assay: as above
[10] = molecular target: T3, OSF SH3 domain (SH3 domain array) (UniProt Q92882); assay: as above
T3 sequence: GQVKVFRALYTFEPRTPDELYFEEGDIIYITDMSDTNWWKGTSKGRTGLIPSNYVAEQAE

[11] = molecular target: PEXD SH3 domain (SH3 domain array) (UniProt Q92968); assay: as above
[12] = molecular target: PI3α SH3 domain (SH3 domain array) (UniProt P27986); assay: as above
[13] = molecular target: T4, PIG2 SH3 domain (SH3 domain array) (UniProt P16885); assay: as above
T4 sequence: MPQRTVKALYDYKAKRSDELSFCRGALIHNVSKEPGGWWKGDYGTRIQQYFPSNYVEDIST

[14] = molecular target: SH3-1 (SH3-containing GRB2-like protein 1) SH3 domain (SH3 domain array) (UniProt Q99961); assay: as above
[15] = molecular target: SNX9 SH3 domain (SH3 domain array) (UniProt Q9Y5X1); assay: as above
[16] = molecular target: SPCN SH3 domain (SH3 domain array) (UniProt Q13813); assay: as above
[17] = molecular target: Stam SH3 domain (SH3 domain array) (UniProt Q92783); assay: as above
[18] = molecular target: T5, TXK SH3 domain (SH3 domain array) (UniProt P42681); assay: as above
T5 sequence: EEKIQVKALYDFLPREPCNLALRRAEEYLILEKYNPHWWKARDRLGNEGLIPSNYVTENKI

[19] = molecular target: Tec SH3 domain (SH3 domain array) (UniProt P42680); assay: as above
[20] = molecular target: VAV-D1 SH3 domain (SH3 domain array) (UniProt P15498); assay: as above
[21] = molecular target: VAV2-D2 SH3 domain (SH3 domain array) (UniProt P52735); assay: as above
[22] = molecular target: VAV3-D2 SH3 domain (SH3 domain array) (UniProt Q9UKW4); assay: as above
[23] = molecular target: VINE-D3 SH3 domain (SH3 domain array) (UniProt O60504); assay: as above
[24] = molecular target: cortactin SH3 domain (SH3 domain array) (UniProt Q14247); assay: as above
[25] = molecular target: C3G (endogenous, isoform not told in the immunoprecipitations) (human (endogenous in K562)) (UniProt Q13905); assay: co-IP; endogenous proteins immunoprecipitated from precleared K562 whole cell lysates (GammaBind G Sepharose), immunoblot; in Figures 5A and 6E cells cultured on 10 ug/ml fibronectin for 24 h; in Figure 6E shC3G or shCT clones
[26] = molecular target: CrkL (human (endogenous in K562)) (UniProt P46109); assay: as above
[27] = molecular target: p38α MAPK (human (endogenous in K562)) (UniProt Q16539); assay: as above

His-tagged-Cbl-SH3-b domain (from UniProt P22681) (domain or fragment)
binding [1]: binds | binding [2]: binds | binding [3]: binds | binding [4]: binds | binding [5]: binds | binding [6]: binds | binding [7]: binds | binding [8]: binds | binding [9]: binds | binding [10]: binds | binding [11]: binds | binding [12]: binds | binding [13]: binds | binding [14]: binds | binding [15]: binds | binding [16]: binds | binding [17]: binds | binding [18]: binds | binding [19]: binds | binding [20]: binds | binding [21]: binds | binding [22]: binds | binding [23]: binds | binding [24]: binds

p38α MAPK (from UniProt Q16539 1-360)
binding [25]: binds

phospho-paxillin p68 isoform (from UniProt P49023 1-591)
binding [25]: binds

paxillin (from UniProt P49023 1-591)
binding [25]: binds

FAK (from UniProt Q05397 1-1052)
binding [25]: binds

CrkL (from UniProt P46109 1-303)
binding [25]: binds weakly

C3G (endogenous, isoform not told in the immunoprecipitations) (from UniProt Q13905)
binding [26]: binds | binding [27]: binds

Abi1 (from UniProt Q8IZP0 1-508)
binding [25]: binds

Results are given in words; binding and its absence hold for the method and conditions named. A result given as binding can be weak or reduced; the word gives no strength. For some assays here: In cells and extracts the contact can be indirect.
